{"source": "PubChem BioAssay AID2685", "about": "(National Center for Advancing Translational Sciences (NCATS), 2010)", "assay": "qHTS Assay for Lipid Storage Modulators in Drosophila S3 Cells;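 as to cell number change: cells counted by Cell Tracker Red CMTPX staining in the red channel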", "details": "BODIPY lipid droplet fluorescence, 18-24 h; for cell number change: measured here: cell count max response, cells fed with added oleic acid", "summary_of_the_method": "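Laser-scanning cytometry quantifies lipid droplet accumulation (500–530 nm total intensity; droplet/cell object ratio) in oleic acid-fed (400 uM added) Drosophila S3 cells treated with a concentration series. 20 uM Triacsin C defined 100% inhibition.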", "key": {"[1]": {"details": "measured here: cell number channel AC50, cells fed with added oleic acid"}, "[2]": {"details": "measured here: lipid fluorescence (Fed channel) AC50, cells fed with added oleic acid"}}, "note": "Some of the results follow. These are further read-outs of the screen, such as a control signal, another cell line or another target. No call is given for them. The list favours compounds with an active or inconclusive main result. Potencies come from curve fits of mixed quality, noted in brackets.", "data": [{"compound": "CCC(C)(C)C1CCC(=NNC(=O)c2ccoc2C)CC1", "note": "(stereo not drawn)", "values": [{"measurement": "AC50", "setting": "[1]", "result": "0.164 µM [rising, full curve, poor fit]"}]}, {"compound": "COc1ccc(OCCC(=O)Nc2cc3c(cc2C(=O)O)OCCCO3)cc1", "values": [{"measurement": "cell number change", "result": 50, "unit": "%"}, {"measurement": "AC50", "setting": "[1]", "result": "29.1 µM [rising, single point]"}, {"measurement": "AC50", "setting": "[2]", "result": "0.13 µM [falling, full curve, poor fit]"}]}, {"compound": "C=CCn1c(-c2ccc(C)cc2)nc2ccccc21", "values": [{"measurement": "AC50", "setting": "[1]", "result": "2.31 µM [rising, partial curve]"}, {"measurement": "AC50", "setting": "[2]", "result": "8.2 µM [rising, partial curve]"}]}, {"compound": "COc1ccc(-c2nc3ccccc3n2Cc2ccccc2)cc1", "values": [{"measurement": "AC50", "setting": "[1]", "result": "0.731 µM [rising, single point]"}]}, {"compound": "CSc1ccc(CNC(=O)C2Cc3cc(S(=O)(=O)N4CCCCC4)ccc3N2C(C)=O)cc1", "note": "(stereo not drawn)", "values": [{"measurement": "cell number change", "result": -28.3, "unit": "%"}, {"measurement": "AC50", "setting": "[2]", "result": "0.58 µM [rising, single point]"}]}, {"compound": "O=P(O)(c1ccccc1)c1ccccc1O", "values": [{"measurement": "cell number change", "result": 2.38, "unit": "%"}, {"measurement": "AC50", "setting": "[2]", "result": "1.3 µM [falling, full curve]"}]}, {"compound": "O=C1CCCC(=O)C1C1c2ccccc2CCN1C(=O)CCl", "note": "(stereo not drawn)", "values": [{"measurement": "cell number change", "result": 0.12, "unit": "%"}, {"measurement": "AC50", "setting": "[2]", "result": "29.1 µM [falling, single point]"}]}, {"compound": "COc1ccc(NC(=O)NNC(=O)CCc2ccc(O)c(O)c2)cc1OC", "values": [{"measurement": "cell number change", "result": 58.8, "unit": "%"}, {"measurement": "AC50", "setting": "[1]", "result": "10.3 µM [rising, partial curve]"}, {"measurement": "AC50", "setting": "[2]", "result": "23.1 µM [rising, partial curve]"}]}, {"compound": "CNC(=O)c1ccc(-n2cccn2)nc1", "values": [{"measurement": "cell number change", "result": 15.3, "unit": "%"}]}, {"compound": "Cc1cc(NC(=O)c2ccc3c(c2)OCCO3)no1", "values": [{"measurement": "cell number change", "result": 96.3, "unit": "%"}, {"measurement": "AC50", "setting": "[1]", "result": "29.1 µM [rising, single point]"}]}, {"compound": "COC(=O)C1C/C(=N\\NS(=O)(=O)c2ccc(C)cc2)c2ccccc2C1", "note": "(stereo not drawn)", "values": [{"measurement": "AC50", "setting": "[2]", "result": "29.1 µM [rising, single point]"}]}, {"compound": "COc1ccccc1NS(=O)(=O)c1cc(NC(=O)CCC2CCCC2)ccc1N1CCOCC1", "values": [{"measurement": "cell number change", "result": 16.7, "unit": "%"}, {"measurement": "AC50", "setting": "[2]", "result": "29.1 µM [rising, single point]"}]}, {"compound": "CC(NC(=O)c1cc(-c2ccccn2)nc2ccc(Cl)cc12)C1CCCO1", "note": "(stereo not drawn)", "values": [{"measurement": "cell number change", "result": -15.8, "unit": "%"}]}, {"compound": "COC(=O)c1cc(F)c(-n2cncn2)c(F)c1", "values": [{"measurement": "AC50", "setting": "[2]", "result": "29.1 µM [rising, single point]"}]}, {"compound": "Cc1ccc(S(=O)(=O)N2CCCN(S(=O)(=O)C3CCS(=O)(=O)C3)CC2)cc1", "note": "(stereo not drawn)", "values": [{"measurement": "cell number change", "result": -95.5, "unit": "%"}, {"measurement": "AC50", "setting": "[1]", "result": "0.103 µM [falling, full curve, poor fit]"}, {"measurement": "AC50", "setting": "[2]", "result": "23.1 µM [falling, single point]"}]}, {"compound": "COc1ccc(C(=O)C2CCCN(Cc3cccn3-c3nccs3)C2)cc1F", "note": "(stereo not drawn)", "values": [{"measurement": "cell number change", "result": 7.3, "unit": "%"}, {"measurement": "AC50", "setting": "[2]", "result": "23.1 µM [rising, single point]"}]}, {"compound": "O=C(O)COc1ccccc1/C=N/NC(=O)CSc1nc2ccccc2n1Cc1ccccc1", "values": [{"measurement": "cell number change", "result": 22.7, "unit": "%"}, {"measurement": "AC50", "setting": "[2]", "result": "29.1 µM [rising, single point]"}]}, {"compound": "CCOC(=O)Cn1c(C)c(Br)c(=O)c2cccc(C)c21", "values": [{"measurement": "cell number change", "result": 37.5, "unit": "%"}, {"measurement": "AC50", "setting": "[1]", "result": "20.6 µM [rising, single point]"}, {"measurement": "AC50", "setting": "[2]", "result": "0.13 µM [falling, full curve, poor fit]"}]}, {"compound": "CC(C)(C)c1cc(CSC(=S)NC2CCS(=O)(=O)C2)c(Br)c(C(C)(C)C)c1", "note": "(stereo not drawn)", "values": [{"measurement": "cell number change", "result": 110, "unit": "%"}, {"measurement": "AC50", "setting": "[1]", "result": "23.1 µM [rising, single point]"}]}, {"compound": "O=C(NCC1CCCO1)/C(=C\\c1cccs1)NC(=O)c1ccccc1", "note": "(stereo not drawn)", "values": [{"measurement": "cell number change", "result": 20.5, "unit": "%"}, {"measurement": "AC50", "setting": "[2]", "result": "0.00461 µM [rising, full curve, poor fit]"}]}, {"compound": "Cc1ccc(-c2noc(C3CCCN(C(=O)c4ccccc4)C3)n2)o1", "note": "(stereo not drawn)", "values": [{"measurement": "cell number change", "result": 5.86, "unit": "%"}]}, {"compound": "Cc1ccc2nc3c(cc(C#N)c(=N)n3CC3CCCO3)c(=O)n2c1", "note": "(stereo not drawn)", "values": [{"measurement": "cell number change", "result": 27.8, "unit": "%"}, {"measurement": "AC50", "setting": "[2]", "result": "0.164 µM [rising, full curve, poor fit]"}]}, {"compound": "O=C(Nc1ccccc1N1CCCCC1)C1=COCCO1", "values": [{"measurement": "cell number change", "result": -25.2, "unit": "%"}, {"measurement": "AC50", "setting": "[2]", "result": "0.058 µM [falling, full curve, poor fit]"}]}, {"compound": "O=C(Nc1cccc(O)c1)c1c(O)c2ccccc2[nH]c1=O", "values": [{"measurement": "cell number change", "result": 3.11, "unit": "%"}]}, {"compound": "CC(=O)Nc1ccc(S(=O)(=O)NC2(C(F)(F)F)NC(=O)N(Cc3ccccc3)C2=O)cc1", "note": "(stereo not drawn)", "values": [{"measurement": "cell number change", "result": -32.2, "unit": "%"}, {"measurement": "AC50", "setting": "[1]", "result": "29.1 µM [falling, single point]"}]}, {"compound": "O=C(NCCN1CCOCC1)c1ccc(-c2ccccc2)cc1", "values": [{"measurement": "cell number change", "result": 6.29, "unit": "%"}, {"measurement": "AC50", "setting": "[2]", "result": "6.51 µM [falling, single point]"}]}, {"compound": "C=CCN(c1ccccc1)S(=O)(=O)c1cccc(C(=O)N(CC)CC(=O)Nc2c(F)cccc2F)c1", "values": [{"measurement": "AC50", "setting": "[2]", "result": "29.1 µM [falling, single point]"}]}, {"compound": "CCOC(=O)C(C)N1C(=O)S/C(=C/c2ccc3c(c2)n(C)c(=O)n3C)C1=O", "note": "(stereo not drawn)", "values": [{"measurement": "cell number change", "result": 0.44, "unit": "%"}, {"measurement": "AC50", "setting": "[2]", "result": "29.1 µM [falling, single point]"}]}, {"compound": "Cc1nn(-c2ccccn2)c2c1C(c1c(F)cccc1Cl)C1=C(N2)c2ccccc2C1=O", "note": "(stereo not drawn)", "values": [{"measurement": "cell number change", "result": -1.03, "unit": "%"}, {"measurement": "AC50", "setting": "[2]", "result": "0.326 µM [rising, full curve]"}]}, {"compound": "OC(COC(c1ccc(F)cc1)c1ccc(F)cc1)CN1CCc2ccccc2C1", "note": "(stereo not drawn)", "values": [{"measurement": "cell number change", "result": -65.4, "unit": "%"}, {"measurement": "AC50", "setting": "[1]", "result": "23.1 µM [falling, single point]"}]}, {"compound": "COc1ccc(NC(=O)c2cc([N+](=O)[O-])ccc2NC(=O)CNCc2ccccn2)c(OC)c1", "values": [{"measurement": "cell number change", "result": 14.3, "unit": "%"}, {"measurement": "AC50", "setting": "[2]", "result": "29.1 µM [falling, single point]"}]}, {"compound": "COc1ccc(NC(=O)/C(C#N)=C/c2ccc3c(c2)n(C)c(=O)n3C)cc1", "values": [{"measurement": "cell number change", "result": -43.6, "unit": "%"}, {"measurement": "AC50", "setting": "[1]", "result": "10.3 µM [falling, partial curve, poor fit]"}]}, {"compound": "Cc1nc(-c2ccccc2)nc2[nH]ccc(=O)c12", "values": [{"measurement": "cell number change", "result": 54, "unit": "%"}, {"measurement": "AC50", "setting": "[1]", "result": "29.1 µM [rising, single point]"}, {"measurement": "AC50", "setting": "[2]", "result": "18.4 µM [rising, partial curve]"}]}, {"compound": "O=C(CSc1nc(-c2ccccc2)c(-c2ccccc2)o1)NCCCO", "values": [{"measurement": "cell number change", "result": 10.6, "unit": "%"}, {"measurement": "AC50", "setting": "[2]", "result": "29.1 µM [falling, single point]"}]}, {"compound": "Cc1ccc2c(C)c(C(=O)N3CCN(Cc4ccccn4)CC3)oc2c1C", "values": [{"measurement": "cell number change", "result": 31.7, "unit": "%"}, {"measurement": "AC50", "setting": "[1]", "result": "23.1 µM [rising, partial curve]"}]}, {"compound": "CS(=O)(=O)Nc1ccccc1C(=O)c1ccccc1", "values": [{"measurement": "cell number change", "result": 10.5, "unit": "%"}]}, {"compound": "COc1ccc(-c2csc(NC(=S)NC(=O)c3ccc(S(=O)(=O)N(C)C)cc3)n2)cc1OC", "values": [{"measurement": "cell number change", "result": -23.9, "unit": "%"}, {"measurement": "AC50", "setting": "[2]", "result": "1.46 µM [falling, single point]"}]}, {"compound": "NC(=O)c1nsc(C(=O)N(CC(=O)NCc2ccc(F)cc2)Cc2ccco2)c1N", "values": [{"measurement": "cell number change", "result": 27.1, "unit": "%"}, {"measurement": "AC50", "setting": "[2]", "result": "3.66 µM [rising, single point]"}]}, {"compound": "COc1ccc(CNCCc2ccc([N+](=O)[O-])cc2)c(OC)c1OC", "values": [{"measurement": "cell number change", "result": 19.3, "unit": "%"}, {"measurement": "AC50", "setting": "[2]", "result": "6.51 µM [rising, single point]"}]}]}
